These results are taken from patent US5834431A, “Des-Arg^9 -BK antagonists” (Cortech, Inc., priority 1995, dated 1998).

The target in this test is T1, B1 receptor (Homo sapiens, UniProt P46663).
T1 construct: Human lung fibroblasts IMR-90 cells were obtained from ATCC and propagated in DMEM media; host or cells: IMR-90 human lung fibroblasts, treated with interleukin 1b three hours before harvest; membranes
T1 sequence (P46663 1-353): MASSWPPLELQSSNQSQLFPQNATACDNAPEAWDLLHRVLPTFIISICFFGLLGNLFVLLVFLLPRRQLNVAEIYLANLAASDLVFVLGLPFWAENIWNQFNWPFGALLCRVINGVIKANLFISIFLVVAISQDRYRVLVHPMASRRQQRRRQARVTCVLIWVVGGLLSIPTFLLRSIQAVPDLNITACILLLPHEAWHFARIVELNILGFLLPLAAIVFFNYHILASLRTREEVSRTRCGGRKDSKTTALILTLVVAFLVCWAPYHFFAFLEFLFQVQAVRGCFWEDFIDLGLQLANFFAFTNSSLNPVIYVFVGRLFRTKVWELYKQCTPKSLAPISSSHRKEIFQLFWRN
Kind of test: Human B1 binding, IL-1b-treated IMR-90 membranes, 3H-des-Arg9-Kallidin. On the procedure: Human lung fibroblasts IMR-90 cells were obtained from ATCC and propagated in DMEM media in […] roller bottles until confluent. Three hours prior to harvesting, the cells were treated with Interleukin lb (200 pg/ml). Human BK2 clones were propagated in F12 media until confluent. Preparation of membranes for binding assays was carried out by scraping cells from roller bottles in ice cold PBS and centrifuging at 1000 ×g, at 4° C. for 15 minutes. The supernatant was discarded and pellet resuspended in Buffer A consisting of 25 mM TES(pH 6.8) with 2 uM 1,10-Phenanthroline, and centrifuged at 27,000 ×g for 15 min. this was then repeated. The final pellet was resuspended in Buffer B (Buffer A with 2 uM Captopril, 140 ug/Ml Bacitracin, 0.1%BSA), and stored in 1 ml aliquots, frozen at -20° C. until needed.
Binding assays were performed by incubating human clone membranes with 0.3 nM ^3 H-Bradykinin or IMR-90 membranes with 0.5 nM ^3 H-des-Arg^9 -Kallidin in the presence of the peptides in assay buffer (Buffer B with 1 mM Dithiotreitol), at room temperature, for 45 minutes. All test compound dilutions were in triplicate. Assays were harvested by quick filtration in a Tomtec Harvester 96, with ice cold wash buffer consisting of 10 mM Tris/HCl, pH 7.5, 100 mM NaCl, 0.02%BSA, onto Wallec printed glassfiber Filtermat "B", which had been pre-soaked with 0.1% PEI and previously air-dried.

As usually defined, the IC50 is the concentration needed to halve the response being measured. For `NCCCC[C@H](NC(=O)[C@@H](N)CCCCN)C(=O)N[C@@H](CCCN=C(N)N)C(=O)N1CCC[C@H]1C(=O)N1C[C@H](O)C[C@H]1C(=O)NCC(=O)N[C@H](C(=O)N[C@@H](CO)C(=O)N[C@@H](C(=O)N1[C@H](C(=O)O)C[C@@H]2CCCC[C@@H]21)C1Cc2ccccc2C1)C1Cc2ccccc2C1` [B9858, Lys- Lys-Arg-Pro-Hyp-Gly-Igl-Ser-DIgl-Oic], the IC50 is 0.0794 nM.
